# Screening data, single-dose tests

Chains of the proteins cited; added tags and fusions are not shown.
UniProt P9WFT3, whole entry: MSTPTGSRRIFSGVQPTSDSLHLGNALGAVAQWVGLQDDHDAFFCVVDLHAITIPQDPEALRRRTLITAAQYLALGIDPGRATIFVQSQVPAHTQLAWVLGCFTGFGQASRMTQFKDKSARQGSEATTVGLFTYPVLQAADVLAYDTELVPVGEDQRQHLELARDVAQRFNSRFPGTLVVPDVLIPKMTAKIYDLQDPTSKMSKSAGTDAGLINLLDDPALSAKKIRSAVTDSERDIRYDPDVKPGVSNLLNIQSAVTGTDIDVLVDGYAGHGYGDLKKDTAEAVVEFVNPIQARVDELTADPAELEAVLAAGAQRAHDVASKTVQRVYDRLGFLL

Measurements from “University of Dundee, Small-Polar-MMV Screening Library” (2021), ChEMBL document CHEMBL3988442.

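Enzyme assay of tryptophanyl-tRNA synthetase; the read-out is not stated. Target: Tryptophan-tRNA ligase, Mycobacterium tuberculosis (UniProt P9WFT3). Tested at 10 µM. Direction is not recorded; retested compounds ran higher, which suggests that high means inhibition. About 65,000 compounds were tested under these conditions; 0.098% (about 64) showed 50% or more at least once.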

Values are the deposited “Percent Effect”, in %. The record does not define 0% and 100%; most values in the screen are far below 50% and negative numbers occur (in some assays of this library far below -100). The compounds are a random part of those screened.

Compound,Percent Effect
Cc1c(I)cccc1C(=O)NCC1(CO)CC1,3.638%
CNC(=O)CN1CCC(CN(C)CCSc2ccccc2)CC1,-2.643%
CN(C)c1nccc(C2CCN(C(=O)CO)CC2)n1,12.71%
CS(=O)(=O)c1ccc(NC(=O)NCc2ccc(F)cc2)cn1,1.11%
Cc1ccc(CN2Cc3nnn(C)c3C(COCCN(C)C)C2)s1 (centres unmarked),-6.203%
CN(CC(=O)NC1CCOCC1)C1CCCN(c2cccnn2)C1 (centres unmarked),-5.649%
CCN1CCC(NC(=O)NC2CCOc3ccc(Br)cc32)CC1 (centres unmarked),4.641%
CCNC(=O)N1CCC(NC(=O)NCCc2ccc(C)cc2C)C1 (centres unmarked),5.14%
Cn1cnnc1C1CCCN(C(=O)c2ccc3c(c2)OCCCO3)C1 (centres unmarked),2.267%
O=C(c1cocn1)N1C[C@H]2CCC[C@@]2(COCc2cccnc2)C1,1.256%
CS(=O)(=O)CCCSc1n[nH]c(-c2ccc3c(c2)CCC3)n1,-0.4599%
CCC(C)C(=O)N(Cc1ccccn1)C1CC1 (centres unmarked),4.72%
CN(CCc1ccncc1)Cc1nccn1Cc1ccccc1,22.68%
O=C(N1CCOCC1)N1CCCC1c1nc(-c2ccccn2)no1 (centres unmarked),0.1874%
Cc1nc(N)c2ccc(C3CCCCN3)nc2n1 (centres unmarked),-5.673%
CCCn1nnnc1COC(=O)C1COc2ccc(Cl)cc2C1 (centres unmarked),-3.207%
CC(=O)N1CCN(c2ccccc2CNc2cncc(C)c2)CC1,-7.545%
Cc1cnn(CC2CN(c3nnc(C)c(C)c3C#N)CCO2)c1 (centres unmarked),1.82%
O=C1NCC2(CCCN(C(=O)c3c[nH]nc3-c3cccs3)C2)O1 (centres unmarked),2.692%
CN1C2(CCN(Cc3ccc(F)cc3)C2)c2ccccc2S1(=O)=O (centres unmarked),12.63%
COc1ccccc1CN1CC[C@]2(C[C@H](OC)CO2)C1,-1.206%
CCCc1cc(NC(=O)c2cccc(N3CCCNC3=O)c2)n[nH]1,-0.5202%
Cc1ccc(OCC2CCCN(C(=O)c3csc(CN(C)C)n3)C2)cc1 (centres unmarked),3.778%
Cc1nc(CN2CCCN(CCCc3ccccc3)CC2)no1,-1.986%
CS(=O)(=O)NC1CCN(C(=O)NCC2CCCO2)CC1 (centres unmarked),0.5201%
CCCn1cc(-c2ccnc(NC3CCCc4ccccc43)n2)c(C)n1 (centres unmarked),2.051%
O=C1CCC2(CCN(Cc3cc(F)cc(F)c3)CC2)CN1CCO,-2.464%
Cc1nccc(-c2ccccc2)c1C(=O)N1CC[C@](C)(O)C(C)(C)C1,2.621%
CCCn1cnnc1CNC1CSCCSC1,-3.003%
Cc1ccc(CN2CCC3(CCC(=O)N3CC(=O)N(C)C)CC2)s1,-0.995%
CCN1CCCC2(CCN(Cc3nnc(C4CC4)o3)C2)C1=O (centres unmarked),-3.769%
CC(=O)N1CCCN(C(=O)NCc2ccc(-c3ccn[nH]3)cc2)CC1,-5.503%
Cc1nc(-c2cnn(C)c2)nc2c1CN(C(=O)c1cccn1C)CC2,2.933%
CC(=O)N1CCC(C(=O)NC2CC(C)(C)Oc3cc(C)ccc32)CC1 (centres unmarked),0.3846%
O=C(c1ccn(-c2cccc(Cl)c2)n1)N1CCN(CCO)CC1,-6.36%
CC(C)N(C)C(=O)CSCc1ccc(S(=O)(=O)N(C)C)o1,-3.259%
O=C(Nc1ccc2c(c1)OCO2)N1CCN(CCn2ccnc2)CC1,-1.544%
O=C(COc1ccc(C(F)(F)F)cc1)N1CCOCC1c1ncon1 (centres unmarked),-6.215%
Cc1nc(C2CCN(S(C)(=O)=O)CC2)nc2c1CCC(=O)N2CC(C)C,-6.22%
CNC(=O)N1C[C@H]2CC[C@@]3(N=C(c4ccccc4)NC3=O)[C@H]2C1,1.408%
CCOc1ccccc1C(=O)N(C)C(C)c1ccc(S(C)(=O)=O)cc1 (centres unmarked),0.361%
COc1cccc(CC(=O)N2CCc3nc(C(N)=O)sc3CC2)c1,-3.456%
CN(C)c1ncccc1NC(=O)C1CN(Cc2ccccc2)CCO1 (centres unmarked),6.3%
COCc1nc(C(=O)N2CCCC2Cn2cc(C)cn2)cs1 (centres unmarked),-1.254%
COCCN1CC(C(=O)NCc2ccc(C)s2)CC1=O (centres unmarked),-4.941%
COCCNC(=O)N1CCN(c2cc(F)ccc2F)CC1,-0.4989%
O=C(Nc1cccc(N2CCN(CC3CC3)CC2)c1)C1CCCO1 (centres unmarked),1.016%
O=C(Nc1ccc2c(c1)C(=O)NC2)c1ccc(S(=O)(=O)C(F)(F)F)cc1,2.21%

The first 4 entries again:

Compound,Percent Effect
Cc1c(I)cccc1C(=O)NCC1(CO)CC1,3.638%
CNC(=O)CN1CCC(CN(C)CCSc2ccccc2)CC1,-2.643%
CN(C)c1nccc(C2CCN(C(=O)CO)CC2)n1,12.71%
CS(=O)(=O)c1ccc(NC(=O)NCc2ccc(F)cc2)cn1,1.11%